# PMC4182512
# These are yes or no findings as the source states them, for the method shown. Where a sequence is shown, tags or fusion partners need not be part of it.
# B1: PssP (bacterial two-hybrid fusion with an adenylate cyclase fragment) (protein, UniProt Q27SV1 1-746)
# chain: MLSPDKLTPRIDPSRDTGNEADFIDFDKLIAIARRQWRMVAACGFAFAILGIVYVLTSVPVYTADTSVLIDRSDSQVINQLAAFGQMDDDEGTVLSQVELLKSDTIAYAVVDKLKLVDNPEFMGPKSSLFSVSTLKSFMNFRSWFADDAVVAPDPEMRRRGAAETVAGNIDVERVGRSYVLDVSYTAQSPGLARDIAAGIADVYLVDKLNSKYEATRRAGQWLQERIEELRQQALDTDLAVQKFRGEHGLVEAGSTTLISEQQLSEINTQLINAQAETAKAEARYARVKSIIDAKQTDAIVTDVLDSSISNDLRKKYLEASKLETEIEARLGPDHVQAVRLRAEMEEYKRLMFDELNRIAESYQSELQVAKSRENSLRDSVTQATGVATAGETQVQLRELERTRDTYKNLYQSFLTRYQEAIQQQSFPITAARIITTAETRTKPSAPKRALVVAFAMFVGCAFGSGIAAFREFRDRSSAPATMSVTCSMSSLSVSCRSLKITSTIRRSLIPAIREHCQGGKTTTYVEEHPLSAFAETLRSAKIAIDLSAADQRCKVIGVVSSLPGEGKSTTSINFAKLVAMQGARCLLIDGDMRNPGATRAIGRHAEAGLLEAIVDSRPLKDLILLDPKTKLAFLPTVARYRVPHSSELLASRGMDQLLQTARQSFDYIIVDLPPLAPVVDARAINSKLDAVVFVIEWGKTSRKVVQSTLLSEPELYAKCVGTILTKVDPSQMKRLPDIRFERVLL
# Key:
# [1] = molecular target: PssA (bacterial two-hybrid fusion with an adenylate cyclase fragment) (Rhizobium leguminosarum bv. trifolii TA1) (UniProt Q52856); assay: two-hybrid; bacterial two-hybrid (adenylate cyclase T18/T25) in E. coli DHM1 cya reporter strain grown at 30°C; baits in pUT18 or pUT18C, preys in pKT25; blue colonies on LB with X-gal and IPTG and β-galactosidase activity (U/mg bacterial dry weight) significantly higher than in the control
# [2] = molecular target: PssC (bacterial two-hybrid fusion with an adenylate cyclase fragment) (Rhizobium leguminosarum bv. trifolii TA1); assay: as above
binder,measurement,setting,value
B1,binding,[1],no binding
same,binding,[2],no binding
